Results are given in words; binding and its absence hold for the method and conditions named. In cells and extracts the contact can be indirect. Some entries that bind do so weakly or less than the wild type.

This assay deals with T1, DRC3 (mouse (endogenous in testis)) (UniProt Q9D5E4).
T1 sequence: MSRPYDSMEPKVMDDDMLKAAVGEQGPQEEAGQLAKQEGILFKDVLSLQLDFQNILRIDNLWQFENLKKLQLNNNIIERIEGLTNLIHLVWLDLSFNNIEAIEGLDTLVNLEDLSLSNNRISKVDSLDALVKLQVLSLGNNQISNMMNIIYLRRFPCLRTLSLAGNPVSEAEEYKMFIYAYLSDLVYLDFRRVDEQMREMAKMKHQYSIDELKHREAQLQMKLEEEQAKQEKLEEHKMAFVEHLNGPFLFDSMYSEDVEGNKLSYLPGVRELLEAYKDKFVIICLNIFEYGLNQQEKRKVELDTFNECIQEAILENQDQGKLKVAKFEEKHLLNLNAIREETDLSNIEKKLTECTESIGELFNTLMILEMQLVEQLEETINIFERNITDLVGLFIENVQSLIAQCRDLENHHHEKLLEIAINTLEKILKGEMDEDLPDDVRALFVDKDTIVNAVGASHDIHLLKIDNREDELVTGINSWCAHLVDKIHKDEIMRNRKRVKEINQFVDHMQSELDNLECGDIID
Nature of the assay: co-IP; co-immunoprecipitation in vivo, testicular protein from wild-type mice.

B1: IFT74 (protein, UniProt Q8BKE9 1-600)
chain: MASNHKSSAPRPISRGGIGLTGRPPSGIRPPSGNVRVATAMPPTTARPGSRGGPLGTGGVLSSQIKVADRPVTQQGLSGMKTGMKGPQRQILDKSYYLGLLRSKISELTTEINKLQKEIEMYNQENSVYLSYEKRAETLAVEIKDFQGQLADYNMLVDKLNTNTEMEEVMSDYNMLKAQNDRETQSMDVIFTERQAKEKQIRSVEEEVEQEKQAADGIIKNMSPEKQVKYIEMKTTNEKLLQELDTLQQQLDSLNMKKESLETEIAHSQVKQEAVLLYEKLYELESHRDQMIAEDKSMGSPMEERERLLKQVKEDNQEIASMERQLTDIKEKINQFSEEIRQLDMDLEEHQGEMNQKYKELKKREENMDAFIETFEETKNQELERKAQIEASIITLLEHCSRNINRMKQISSITNQELKMMQDDLSFKSTEMQKSQTTARNLTSDSQRLQLDLQKMELLESKMTEEQQSLKNKIKQMTADLETYSDLAALKSSAEEKKKKLHQERTVLSTHRNAFKKIMEKLTSDYDTLKRQLQDNETHAQLTNLERKWQHLEQNNFVMKEFIATKSQESDYQPVIKNVMKQIAEYNKTIMDALHNASRS
Turning to B1, the binding result is given as “binds”.

B2: IFT81 (protein, UniProt O35594 1-676)
chain: MSDQIKFIVDSLNKEPFKKNYNLITFDSLGPMQLLQVLNDVLAEIDPKQDVDIREEMPEQTAKRMLNLLGILKYKPPGNATDMSTFRQGLVIGSKPVIYPVLHWLLQRSNELKKRAYLARFLIKLEVPSEFLQDETVADTNKQYEELMEAFKTLHKECEQLKTSGFSTAEIRRDISAMEEEKDQLMKRVERLKKRVETVQNHQRMLKIARQLRVEKEREEFLAQQKQEQKNQLFHAVQRLQRVQNQLKSMRHAAADAKPESLMKRLEEEIKFNSYMVTEKFPKELESKKKELHFLQKVVSEPAMGHSDLLELETKVNEVNTEINQLIEKKMMRNEPIEGKLSLYRQQASIISRKKEAKAEELQETKEKLASLEREVLVKTNQTREFDGTEVLKGDEFKRYVSKLRSKSTVFKKKHQIIAEFKAEFGLLQRTEELLKQRQETIQHQLRTIEEKKGISGYSYTQEELERVSALKSEVDEMKGRTLDDMSEMVKKLNSLVSEKKSALAPVIKELRQLRQKCQELTQECDEKKAQYDSCAAGLESNRSKLEQEVRGLREECLQEESKYHYTNCMIKNLEVELRRATDEMKAYVSSDQQEKRKAIREQYTKNITEQENLGKKLREKQKAVRESHGPNMKQAKMWRDLEQLMECKKQCFLKQQSPASIGQVIQEGGEDRLVL
Consider B2, for which the binding entry is “binds”.

Values taken from paper PMC9832115.
